In patent US10167258B2, “Inhibitors of mitochondrial pyruvate dehydrogenase kinase isoforms 1-4 and uses thereof” (The Board of Regents of the University of Texas System, priority 2013, dated 2019):
At least one compound was matched to its structure with a doubt left.

Legend:
ChREBP = assay: Hepatic nuclear ChREBP protein levels in PDK inhibitor-treated DIO mice; type: in vivo; conditions: 200 mg/kg/day by mini-pumps for 5 days
Source text: The antibody (from Santa Cruz) against the 95-kilodalton ChREBP is highly specific; no signal was detected in hepatic nuclear fractions from ChREBP KO mice. The reduced nuclear ChREBP protein levels correlate with curtailed liver-type pyruvate kinase (LPK) (FIG. 11B), the marker glycolytic enzyme tightly regulated by ChREBP^5. The increased PDC flux is indicated by diminished phosphorylation of the decarboxylase/dehydrogenase (E1)-α subunit of this enzyme complex (FIG. 11B); while the expression of this subunit is not affected (not shown). The glucose-sensitive transcription factor ChREBP discovered and cloned by the Uyeda group in 2001 (Yamashita et al., 2001) has emerged as a central regulator of lipogenesis in liver (Uyeda and Repa, 2006; Filhoulaud et al., 2013; Denechaud et al., 2008) and β-cells (Cha-Molstad et al., 2009; Kibbe et al., 2013) at the transcriptional level (Uyeda and Repa, 2006; Filhoulaud et al., 2013; Denechaud et al., 2008). […] Therefore, the inventors propose that increased glucose oxidation through PDC flux lowers hepatic glucose concentrations and attenuates nuclear ChREBP-mediated de novo lipogenesis in liver (FIG. 12A). […]

mature SREBP-1c = assay: Hepatic nuclear mature SREBP-1c protein level in PDK inhibitor-treated DIO mice; type: in vivo; conditions: 200 mg/kg/day by mini-pumps for 5 days
PDC = PDC flux in perfused hearts from DIO mice by hyperpolarized 13C NMR; conditions: single dose 250 mg/kg IP, 1-h
PDK = conditions: literature value; read-out: IC50 (known PDK inhibitor); cited from earlier work

For `O=C(O)C(Cl)Cl` [DCA, dichloroacetate, reference compound], the “ChREBP protein levels in hepatic nuclear fractions” value (ChREBP) was “drastically decreased”, the “protein level of nuclear mature SREBP-1c” value (mature SREBP-1c) was “unchanged” and the “cardiac PDC flux in DIO mice” value (PDC) was “marked increase”. For the same compound, the IC50 (PDK) was 290 µM.
